The other results are listed elsewhere or left out.
Legend:
Experiment in all cases: log2 fold change, soluble protein after heating vs DMSO (PISA); higher = thermal stabilisation; K562 lysate, 10 uM; active = over 0.2 and 3.5 SD of the protein, either way, in both replicates (recomputed)
erlotinib = compound: C#Cc1cccc(Nc2ncnc3cc(OCCOC)c(OCCOC)cc23)c1 [erlotinib]
Outline: (§1)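 Thermal stability, expressed as log-two fold change relative to solvent controls, is given from duplicates. Crude K562 extract in PBS pH 7.4 with 1 mM MgCl2, at 1 mg/mL protein, was treated with 10 μM compound for 30 min and heated in aliquots for 3 min across 48°C-58°C. After pooling, adjustment to 0.5% NP-40 at 4°C and centrifugation at 21,000xg for 90 min, supernatant protein was measured by TMTpro 16plex LC-MS/MS with channel sums equalised.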

By UniProt entry, the sequences of proteins in these tests, tags left out. Where a name states a change or a piece, a line headed by the entry shows the natural chain unless it says otherwise.
UniProt Q7RTN6: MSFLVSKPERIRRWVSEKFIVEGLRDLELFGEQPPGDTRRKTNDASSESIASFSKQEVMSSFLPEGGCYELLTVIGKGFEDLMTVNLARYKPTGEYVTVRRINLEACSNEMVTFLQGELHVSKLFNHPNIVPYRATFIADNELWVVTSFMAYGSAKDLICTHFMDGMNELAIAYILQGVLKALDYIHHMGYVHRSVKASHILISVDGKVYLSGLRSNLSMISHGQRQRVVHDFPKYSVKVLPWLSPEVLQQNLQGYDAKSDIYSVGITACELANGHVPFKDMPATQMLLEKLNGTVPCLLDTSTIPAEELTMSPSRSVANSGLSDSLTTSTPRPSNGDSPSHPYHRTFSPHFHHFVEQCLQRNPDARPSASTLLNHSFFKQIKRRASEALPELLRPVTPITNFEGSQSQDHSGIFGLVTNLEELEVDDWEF
UniProt O43426, whole entry, looked up: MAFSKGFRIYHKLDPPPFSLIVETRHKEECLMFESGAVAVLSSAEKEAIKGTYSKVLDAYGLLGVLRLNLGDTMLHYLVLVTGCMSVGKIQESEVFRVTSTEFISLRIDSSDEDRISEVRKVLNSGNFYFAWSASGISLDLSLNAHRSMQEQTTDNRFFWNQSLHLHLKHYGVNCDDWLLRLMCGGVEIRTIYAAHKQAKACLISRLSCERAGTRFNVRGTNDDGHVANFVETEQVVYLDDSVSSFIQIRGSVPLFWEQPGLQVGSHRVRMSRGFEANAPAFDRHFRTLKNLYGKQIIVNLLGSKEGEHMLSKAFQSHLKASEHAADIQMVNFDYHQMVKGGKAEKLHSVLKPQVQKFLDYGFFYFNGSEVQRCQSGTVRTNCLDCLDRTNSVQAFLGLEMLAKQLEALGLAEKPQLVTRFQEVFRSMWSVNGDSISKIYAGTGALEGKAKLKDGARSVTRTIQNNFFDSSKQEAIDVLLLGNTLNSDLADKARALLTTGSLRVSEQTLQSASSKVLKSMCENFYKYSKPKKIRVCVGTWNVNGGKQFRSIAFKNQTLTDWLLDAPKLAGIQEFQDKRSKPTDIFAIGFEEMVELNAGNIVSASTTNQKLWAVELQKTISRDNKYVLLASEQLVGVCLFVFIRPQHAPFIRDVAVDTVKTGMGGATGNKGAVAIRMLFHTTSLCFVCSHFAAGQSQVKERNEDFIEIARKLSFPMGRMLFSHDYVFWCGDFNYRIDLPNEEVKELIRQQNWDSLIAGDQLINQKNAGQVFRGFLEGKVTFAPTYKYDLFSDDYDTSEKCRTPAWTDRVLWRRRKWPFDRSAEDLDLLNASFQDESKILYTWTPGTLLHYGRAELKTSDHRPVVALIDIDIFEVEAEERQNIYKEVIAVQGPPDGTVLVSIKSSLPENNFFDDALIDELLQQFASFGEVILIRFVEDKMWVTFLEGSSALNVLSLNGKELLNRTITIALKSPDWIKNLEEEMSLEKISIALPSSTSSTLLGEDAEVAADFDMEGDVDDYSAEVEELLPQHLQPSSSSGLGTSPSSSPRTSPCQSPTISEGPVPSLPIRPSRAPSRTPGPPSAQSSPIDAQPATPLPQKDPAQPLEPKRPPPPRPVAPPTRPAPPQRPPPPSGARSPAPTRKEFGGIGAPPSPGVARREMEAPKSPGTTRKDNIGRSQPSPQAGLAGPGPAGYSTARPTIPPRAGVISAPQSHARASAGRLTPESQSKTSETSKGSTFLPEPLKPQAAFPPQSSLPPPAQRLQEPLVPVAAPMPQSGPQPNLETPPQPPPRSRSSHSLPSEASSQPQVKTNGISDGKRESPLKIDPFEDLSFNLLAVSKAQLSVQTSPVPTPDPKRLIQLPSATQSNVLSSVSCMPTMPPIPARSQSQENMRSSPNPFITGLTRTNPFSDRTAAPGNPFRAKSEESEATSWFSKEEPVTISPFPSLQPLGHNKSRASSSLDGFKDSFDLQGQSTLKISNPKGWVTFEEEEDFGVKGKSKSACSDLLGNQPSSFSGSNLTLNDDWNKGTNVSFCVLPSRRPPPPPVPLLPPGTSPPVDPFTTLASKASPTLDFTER
UniProt Q9P2W9: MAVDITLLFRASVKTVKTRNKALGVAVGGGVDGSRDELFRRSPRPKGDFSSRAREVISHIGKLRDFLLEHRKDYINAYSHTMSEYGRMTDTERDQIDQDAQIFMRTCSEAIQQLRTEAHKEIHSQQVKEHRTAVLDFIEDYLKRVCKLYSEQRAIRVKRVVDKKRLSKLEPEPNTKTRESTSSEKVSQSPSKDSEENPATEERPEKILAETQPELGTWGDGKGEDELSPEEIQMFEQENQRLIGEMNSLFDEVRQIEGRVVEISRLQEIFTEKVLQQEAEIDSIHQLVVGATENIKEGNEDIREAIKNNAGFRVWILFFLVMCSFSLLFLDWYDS
UniProt P08247, whole entry, looked up: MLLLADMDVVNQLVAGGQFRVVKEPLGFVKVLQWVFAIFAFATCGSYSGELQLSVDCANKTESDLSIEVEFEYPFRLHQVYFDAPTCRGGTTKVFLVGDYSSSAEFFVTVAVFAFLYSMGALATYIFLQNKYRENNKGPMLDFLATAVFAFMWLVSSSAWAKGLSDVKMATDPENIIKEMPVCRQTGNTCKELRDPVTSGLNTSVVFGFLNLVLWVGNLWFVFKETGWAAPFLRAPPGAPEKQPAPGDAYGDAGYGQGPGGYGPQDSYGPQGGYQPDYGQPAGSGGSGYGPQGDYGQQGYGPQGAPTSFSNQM
UniProt Q96C24: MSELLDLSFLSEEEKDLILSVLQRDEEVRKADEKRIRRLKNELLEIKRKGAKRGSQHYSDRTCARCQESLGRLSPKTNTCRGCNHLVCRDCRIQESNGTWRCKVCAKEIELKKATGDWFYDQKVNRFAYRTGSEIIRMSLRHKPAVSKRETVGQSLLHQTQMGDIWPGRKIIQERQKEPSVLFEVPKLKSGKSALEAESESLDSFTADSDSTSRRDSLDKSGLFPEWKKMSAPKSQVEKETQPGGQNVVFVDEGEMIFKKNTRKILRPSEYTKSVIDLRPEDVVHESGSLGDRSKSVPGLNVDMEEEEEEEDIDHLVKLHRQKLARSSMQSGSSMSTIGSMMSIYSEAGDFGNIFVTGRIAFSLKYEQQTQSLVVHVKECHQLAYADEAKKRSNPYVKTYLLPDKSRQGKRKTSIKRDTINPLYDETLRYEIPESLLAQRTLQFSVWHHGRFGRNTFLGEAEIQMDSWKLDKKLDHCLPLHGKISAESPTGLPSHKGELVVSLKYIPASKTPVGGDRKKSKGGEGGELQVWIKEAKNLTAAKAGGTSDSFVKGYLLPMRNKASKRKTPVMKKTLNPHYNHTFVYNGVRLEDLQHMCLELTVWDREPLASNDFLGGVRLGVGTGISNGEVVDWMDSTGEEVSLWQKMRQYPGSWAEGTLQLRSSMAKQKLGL
UniProt Q9NYJ8: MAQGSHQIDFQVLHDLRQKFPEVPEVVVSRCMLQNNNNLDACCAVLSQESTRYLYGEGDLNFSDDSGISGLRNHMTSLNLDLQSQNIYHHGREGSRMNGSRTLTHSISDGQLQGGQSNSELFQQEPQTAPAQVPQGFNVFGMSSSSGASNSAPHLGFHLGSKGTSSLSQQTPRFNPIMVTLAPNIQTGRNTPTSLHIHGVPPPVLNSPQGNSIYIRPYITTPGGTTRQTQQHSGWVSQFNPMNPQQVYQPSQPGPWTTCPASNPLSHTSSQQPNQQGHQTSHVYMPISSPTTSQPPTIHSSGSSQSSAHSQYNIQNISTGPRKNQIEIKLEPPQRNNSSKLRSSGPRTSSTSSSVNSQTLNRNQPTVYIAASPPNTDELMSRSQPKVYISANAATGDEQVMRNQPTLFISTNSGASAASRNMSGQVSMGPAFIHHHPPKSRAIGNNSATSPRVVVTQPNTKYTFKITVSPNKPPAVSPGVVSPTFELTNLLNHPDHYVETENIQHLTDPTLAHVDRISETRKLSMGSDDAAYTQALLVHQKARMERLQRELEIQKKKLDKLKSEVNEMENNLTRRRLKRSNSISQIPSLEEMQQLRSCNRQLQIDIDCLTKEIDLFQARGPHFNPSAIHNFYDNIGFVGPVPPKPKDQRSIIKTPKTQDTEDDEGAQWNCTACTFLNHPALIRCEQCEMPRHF
UniProt Q92804: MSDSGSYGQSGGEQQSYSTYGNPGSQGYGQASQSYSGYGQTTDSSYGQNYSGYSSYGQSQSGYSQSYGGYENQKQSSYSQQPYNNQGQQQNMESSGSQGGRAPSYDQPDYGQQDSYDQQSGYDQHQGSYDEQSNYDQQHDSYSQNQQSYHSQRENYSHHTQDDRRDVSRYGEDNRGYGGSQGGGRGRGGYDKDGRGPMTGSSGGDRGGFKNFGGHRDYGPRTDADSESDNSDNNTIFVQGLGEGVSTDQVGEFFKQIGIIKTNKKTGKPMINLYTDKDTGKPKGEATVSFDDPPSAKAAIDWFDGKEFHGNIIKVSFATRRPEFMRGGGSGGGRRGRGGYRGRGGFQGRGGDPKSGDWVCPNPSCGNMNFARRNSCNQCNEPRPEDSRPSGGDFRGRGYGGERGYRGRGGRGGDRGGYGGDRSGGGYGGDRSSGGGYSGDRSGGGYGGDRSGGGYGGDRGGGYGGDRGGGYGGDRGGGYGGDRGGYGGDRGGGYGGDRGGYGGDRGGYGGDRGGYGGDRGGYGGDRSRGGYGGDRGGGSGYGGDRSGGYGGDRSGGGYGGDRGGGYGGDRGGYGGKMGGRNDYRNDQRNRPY
UniProt P61956, whole entry, looked up: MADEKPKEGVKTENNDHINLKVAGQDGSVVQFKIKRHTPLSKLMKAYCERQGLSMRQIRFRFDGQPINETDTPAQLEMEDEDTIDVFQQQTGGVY
UniProt O15260: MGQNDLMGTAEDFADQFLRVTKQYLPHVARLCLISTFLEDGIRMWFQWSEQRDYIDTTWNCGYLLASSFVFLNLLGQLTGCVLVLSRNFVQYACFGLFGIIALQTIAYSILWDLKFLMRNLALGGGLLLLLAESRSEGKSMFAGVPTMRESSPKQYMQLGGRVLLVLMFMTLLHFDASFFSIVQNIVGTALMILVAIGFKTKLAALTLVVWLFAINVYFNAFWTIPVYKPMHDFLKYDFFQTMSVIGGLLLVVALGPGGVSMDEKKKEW
UniProt Q15022: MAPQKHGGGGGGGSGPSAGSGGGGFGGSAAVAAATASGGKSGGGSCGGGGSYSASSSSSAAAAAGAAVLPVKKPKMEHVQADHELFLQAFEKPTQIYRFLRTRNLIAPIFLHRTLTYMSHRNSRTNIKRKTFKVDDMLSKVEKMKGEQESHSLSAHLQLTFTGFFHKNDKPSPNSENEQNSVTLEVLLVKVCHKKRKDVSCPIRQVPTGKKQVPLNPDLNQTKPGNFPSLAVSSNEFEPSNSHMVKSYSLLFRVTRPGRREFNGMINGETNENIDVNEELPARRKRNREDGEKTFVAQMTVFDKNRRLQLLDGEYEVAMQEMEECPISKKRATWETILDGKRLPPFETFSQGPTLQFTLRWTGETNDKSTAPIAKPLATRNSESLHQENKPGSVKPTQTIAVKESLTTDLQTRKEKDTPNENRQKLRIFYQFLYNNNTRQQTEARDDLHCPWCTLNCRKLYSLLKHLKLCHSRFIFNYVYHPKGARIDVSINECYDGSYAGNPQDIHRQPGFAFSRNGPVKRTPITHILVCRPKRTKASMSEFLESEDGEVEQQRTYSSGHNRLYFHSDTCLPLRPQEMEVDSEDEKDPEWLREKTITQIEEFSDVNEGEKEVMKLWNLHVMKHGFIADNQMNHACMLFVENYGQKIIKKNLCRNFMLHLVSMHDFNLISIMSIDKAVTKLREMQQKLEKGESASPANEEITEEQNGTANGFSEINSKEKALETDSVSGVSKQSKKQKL
UniProt O14662: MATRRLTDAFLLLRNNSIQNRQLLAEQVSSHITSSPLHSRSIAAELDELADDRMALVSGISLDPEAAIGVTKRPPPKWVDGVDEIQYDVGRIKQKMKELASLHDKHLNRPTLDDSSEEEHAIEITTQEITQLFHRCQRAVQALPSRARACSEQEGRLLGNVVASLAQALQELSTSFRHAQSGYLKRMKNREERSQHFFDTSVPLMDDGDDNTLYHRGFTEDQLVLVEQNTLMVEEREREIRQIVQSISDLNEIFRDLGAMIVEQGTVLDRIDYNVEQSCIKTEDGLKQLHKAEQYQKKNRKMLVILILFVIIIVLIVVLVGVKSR
UniProt P63165, whole entry, looked up: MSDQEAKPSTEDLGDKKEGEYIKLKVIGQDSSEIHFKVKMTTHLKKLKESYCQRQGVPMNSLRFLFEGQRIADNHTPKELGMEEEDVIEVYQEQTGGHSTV
UniProt Q9P289: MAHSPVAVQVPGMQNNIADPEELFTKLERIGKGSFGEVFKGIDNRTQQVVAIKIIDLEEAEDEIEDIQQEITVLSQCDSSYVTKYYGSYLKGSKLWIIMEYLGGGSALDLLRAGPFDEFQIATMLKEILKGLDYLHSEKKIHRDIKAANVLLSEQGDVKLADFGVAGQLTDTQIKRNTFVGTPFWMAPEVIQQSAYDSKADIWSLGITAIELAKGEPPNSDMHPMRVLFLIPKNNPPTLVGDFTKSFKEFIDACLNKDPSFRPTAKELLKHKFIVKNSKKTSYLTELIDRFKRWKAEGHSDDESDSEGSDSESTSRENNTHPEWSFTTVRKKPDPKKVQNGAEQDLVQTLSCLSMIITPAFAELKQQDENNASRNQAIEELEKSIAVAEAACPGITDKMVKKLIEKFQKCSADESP

[1] = compound: C/C(=N\NC(=O)C1=CC(=CC=C1)S(=O)(=O)N2CCOCC2)/C3=C(C=CC(=C3)Cl)O
Outline: as §1

[2] = compound: C1=CC(=CC=C1C2=NC3=C(N2)C=C(C=C3)C(=O)N)OC4=CC=C(C=C4)Cl
Outline: as §1

[3] = compound: C1=CC2=C(C=CC(=C2)/C=C\3/C(=O)NC(=NCC4=CC=CS4)S3)N=C1
Outline: as §1

[4] = compound: C1=CC2=NC=CN=C2C=C1/C=C/3\C(=O)NC(=O)S3
Outline: as §1

[5] = compound: C1=CC=C(C=C1)C2=NC(=C(N2)C3=CC=NC=C3)C4=CC(=C(C=C4)Cl)O
Outline: as §1

[6] = compound: C1=CC=C2C(=C1)C3=NNC4=CC=CC(=C43)C2=O
Outline: as §1

[7] = compound: C1CCN(C1)C(=O)NC2=CC=CC(=C2)NC3=NC=C(C(=N3)NCCC4=CN=CN4)Br
Outline: as §1

[8] = compound: C1CN(CCC1(CC2=CC=C(C=C2)Cl)N)C3=NC=NC4=C3C=CN4
Outline: as §1

IRAK-1-4 Inhibitor I = compound: C1COCCN1CCN2C3=CC=CC=C3N=C2NC(=O)C4=CC(=CC=C4)[N+](=O)[O-] [IRAK-1-4 Inhibitor I]
Outline: as §1

ibrutinib = compound: C=CC(=O)N1CCC[C@@H](n2nc(-c3ccc(Oc4ccccc4)cc3)c3c(N)ncnc32)C1 [ibrutinib]
Outline: as §1

[9] = compound: CC(=O)c1cnc2ccc(-c3cc(Cl)c(O)c(Cl)c3)nc2c1N[C@H]1CC[C@H](CN(C)C)CC1
Outline: as §1

ralimetinib = compound: CC(C)(C)Cn1c(N)nc2ccc(-c3[nH]c(C(C)(C)C)nc3-c3ccc(F)cc3)nc21 [ralimetinib]
Outline: as §1

[10] = compound: CC(C)(O)CC(=O)NCCn1ccc2ncnc(Nc3ccc(Oc4cccc(C(F)(F)F)c4)c(Cl)c3)c21
Outline: as §1

[11] = compound: CC(C)C1=C2N=C(C=C(N2N=C1)NCC3=CC=CC=C3)NCCCCCCN
Outline: as §1

[12] = compound: CC1=C(C(CC(=O)N1)C2=CC=C(C=C2)C(F)(F)F)C(=O)NC3=C(C=C4C(=C3)C=NN4)F
Outline: as §1

[13] = compound: CC1=C(C2=C(C=C1)C(=O)C3=CC=CC=C3N2CCCN)C
Outline: as §1

[14] = compound: CC1=C(C=C(C=C1)NC(=O)C2=CC(=CC=C2)C(C)(C)C#N)NC3=CC4=C(C=C3)N=CN(C4=O)C
Outline: as §1

[15] = compound: CC1=C(C=C(C=C1)NC(=O)C2=CC(=CC=C2)N(C)C)NC(=O)C3=CC=C(C=C3)O
Outline: as §1

[16] = compound: CC1=CC=C(C=C1)SC2=C3C=C(SC3=CN=C2)C(=O)N
Outline: as §1

Measured: log2 fold change

STRADA (UniProt Q7RTN6)
inactive: erlotinib 0.025 | [1] -0.016 | [2] -0.003 | [3] 0.003 | [4] -0.046 | [5] 0.015 | [6] 0.039 | [7] 0.044 | [8] -0.03 | IRAK-1-4 Inhibitor I 0.069 | ibrutinib -0.019 | [9] -0.156 | ralimetinib 0.007 | [10] -0.044 | [11] -0.003 | [12] 0.139 | [13] 0.026 | [14] -0.005 | [15] -0.002 | [16] 0.054

SYNJ1 (UniProt O43426)
inactive: erlotinib -0.013 | [1] -0.028 | [2] 0.03 | [3] -0.021 | [4] -0.008 | [5] 0.016 | [6] -0.03 | [7] -0.011 | [8] 0 | IRAK-1-4 Inhibitor I -0.019 | ibrutinib 0.04 | [9] 0.025 | ralimetinib -0.01 | [10] -0.001 | [11] -0.001 | [12] 0 | [13] -0.003 | [14] -0.001 | [15] 0 | [16] -0.015

STX18 (UniProt Q9P2W9)
inactive: erlotinib 0.178 | [1] 0.022 | [2] 0.112 | [3] 0.026 | [4] -0.002 | [5] -0.103 | [6] -0.008 | [7] 0.077 | [8] -0.052 | IRAK-1-4 Inhibitor I -0.233 | ibrutinib 0.014 | [9] 0.055 | ralimetinib 0.061 | [10] -0.128 | [11] 0.15 | [12] -0.14 | [13] -0.006 | [14] -0.055 | [15] 0.118 | [16] 0.043

SYP (UniProt P08247)
inactive: erlotinib -0.002 | [1] 0.044 | [2] 0.076 | [3] 0.051 | [4] 0.025 | [5] 0.004 | [6] 0.055 | [7] 0.105 | [8] 0.064 | IRAK-1-4 Inhibitor I 0.071 | ibrutinib -0.119 | [9] 0.067 | ralimetinib 0.075 | [10] -0.041 | [11] 0.144 | [12] 0.079 | [13] -0.011 | [14] 0.037 | [15] -0.018 | [16] -0.02

SYTL4 (UniProt Q96C24)
inactive: erlotinib 0.012 | [1] -0.109 | [2] -0.06 | [3] -0.153 | [4] -0.03 | [5] 0.01 | [6] 0.076 | [7] -0.007 | [8] 0.027 | IRAK-1-4 Inhibitor I -0.072 | ibrutinib -0.011 | [9] 0.065 | ralimetinib -0.019 | [10] -0.027 | [11] -0.032 | [12] 0.148 | [13] 0.002 | [14] -0.03 | [15] -0.006 | [16] -0.125

TAB2 (UniProt Q9NYJ8)
inactive: erlotinib -0.028 | [1] 0.036 | [2] 0.021 | [3] -0.052 | [4] 0.058 | [5] 0.032 | [6] 0.052 | [7] -0.036 | [8] -0.019 | IRAK-1-4 Inhibitor I 0.037 | ibrutinib -0.033 | [9] 0.078 | ralimetinib -0.022 | [10] 0.039 | [11] -0.091 | [12] 0.051 | [13] 0.025 | [14] 0.106 | [15] -0.007 | [16] -0.022

TAF15 (UniProt Q92804)
inactive: erlotinib -0.055 | [1] 0.005 | [2] 0.043 | [3] 0.004 | [4] -0.022 | [5] 0.02 | [6] 0.007 | [7] 0.04 | [8] 0.009 | IRAK-1-4 Inhibitor I 0.016 | ibrutinib 0.049 | [9] -0.189 | ralimetinib -0.002 | [10] 0.022 | [11] -0.008 | [12] -0.006 | [13] -0.002 | [14] 0.026 | [15] 0.043 | [16] -0.004

STRBP (UniProt Q96SI9)
inactive: erlotinib 0.004 | [1] 0.022 | [2] 0.036 | [3] 0.033 | [4] -0.025 | [5] -0.026 | [6] -0.005 | [7] -0.022 | [8] -0.002 | IRAK-1-4 Inhibitor I 0.011 | ibrutinib -0.001 | [9] -0.019 | ralimetinib -0.035 | [10] 0.037 | [11] -0.014 | [12] 0.053 | [13] -0.103 | [14] 0.002 | [15] -0.018 | [16] 0.031

SUMO2 (UniProt P61956)
inactive: erlotinib -0.02 | [1] 0.071 | [2] 0.016 | [3] 0.047 | [4] -0.068 | [5] 0.02 | [6] 0.014 | [7] 0.057 | [8] 0.048 | IRAK-1-4 Inhibitor I -0.065 | ibrutinib 0.069 | [9] -0.02 | ralimetinib -0.066 | [10] 0.022 | [11] 0.034 | [12] -0.022 | [13] 0.048 | [14] 0.011 | [15] 0.085 | [16] -0.071

SURF4 (UniProt O15260)
inactive: erlotinib 0.017 | [1] -0.048 | [2] -0.012 | [3] -0.008 | [4] 0.015 | [5] 0.014 | [6] -0.062 | [7] -0.019 | [8] 0.021 | IRAK-1-4 Inhibitor I 0.007 | ibrutinib 0.003 | [9] 0.015 | ralimetinib 0.013 | [10] -0.068 | [11] -0.059 | [12] 0.033 | [13] 0.01 | [14] 0.015 | [15] -0.049 | [16] 0.004

SUZ12 (UniProt Q15022)
active: [14] 0.289
inactive: erlotinib 0.024 | [1] -0.077 | [2] -0.018 | [3] 0.007 | [4] 0.004 | [5] 0.034 | [6] -0.079 | [7] -0.038 | [8] -0.021 | IRAK-1-4 Inhibitor I 0.02 | ibrutinib -0.043 | [9] 0.013 | ralimetinib 0.003 | [10] -0.036 | [11] 0.007 | [12] -0.023 | [13] -0.09 | [15] 0.048 | [16] -0.01

STX16 isoform 2 (UniProt O14662)
inactive: erlotinib 0.092 | [1] 0.038 | [2] 0.011 | [3] -0.006 | [4] -0.018 | [5] -0.02 | [6] -0.024 | [7] -0.017 | [8] -0.004 | IRAK-1-4 Inhibitor I 0.022 | ibrutinib 0.007 | [9] 0.043 | ralimetinib -0.009 | [10] -0.033 | [11] 0.079 | [12] 0.039 | [13] -0.031 | [14] 0.014 | [15] -0.055 | [16] -0.017

STK39 (UniProt Q9UEW8)
inactive: erlotinib 0.006 | [1] 0.08 | [2] -0.001 | [3] -0.014 | [4] -0.03 | [5] 0 | [6] -0.133 | [7] -0.004 | [8] -0.013 | IRAK-1-4 Inhibitor I -0.003 | ibrutinib -0.114 | [9] 0.011 | ralimetinib 0.012 | [10] -0.041 | [11] -0.015 | [12] 0.007 | [13] -0.045 | [14] -0.02 | [15] 0.037 | [16] -0.019

SUMO1 (UniProt P63165)
inactive: erlotinib -0.055 | [1] 0 | [2] 0.009 | [3] 0.103 | [4] 0.013 | [5] -0.006 | [6] 0.06 | [7] -0.006 | [8] -0.061 | IRAK-1-4 Inhibitor I -0.014 | ibrutinib -0.015 | [9] 0.029 | ralimetinib 0.023 | [10] -0.001 | [11] -0.025 | [12] -0.042 | [13] 0.059 | [14] 0.015 | [15] -0.02 | [16] 0.004

SUPT6H (UniProt Q7KZ85)
inactive: erlotinib 0.006 | [1] 0.036 | [2] 0 | [3] -0.016 | [4] -0.021 | [5] 0.005 | [6] -0.015 | [7] -0.08 | [8] 0.04 | IRAK-1-4 Inhibitor I -0.005 | ibrutinib 0.023 | [9] -0.037 | ralimetinib 0.006 | [10] -0.057 | [11] -0.028 | [12] -0.008 | [13] -0.036 | [14] 0.022 | [15] 0.014 | [16] -0.005

STK26 (UniProt Q9P289)
inactive: erlotinib 0.008 | [1] -0.007 | [2] -0.005 | [3] -0.009 | [4] 0.002 | [5] -0.002 | [6] 0.06 | [7] 0.03 | [8] -0.011 | IRAK-1-4 Inhibitor I -0.018 | ibrutinib -0.043 | [9] 0.113 | ralimetinib -0.018 | [10] 0.004 | [11] -0.015 | [12] -0.021 | [13] 0.006 | [14] -0.028 | [15] 0.035 | [16] -0.025

— the supplement of paper PMC10849652
